Source: paper doi:10.1101/2025.04.25.650668

Molecular target: GST-RBD (Rhotekin binding domain) (UniProt Q8C6B2)
Assay: pull-down

RhoA (from UniProt P61586 1-193) was tested, and the binding was “binds”.

No constants are given. Whether binding was seen depends on the method and setting. Binding seen in cells or lysates may run through a third protein. Binding can be weak; no strength is given.
